Test results reported in US20040053278A1.
These are yes or no findings as the source states them, for the method shown. For part of these data: In cells and extracts the contact can be indirect. Some results given as binding are weak or reduced against the parent protein; the word gives no strength. For part of these data: Where a sequence is shown, tags or fusion partners need not be part of it. Values belong to the substance of their own block, whether it stands above or below them.

Amino acid sequences for entries named in this document (tags omitted). A change or cut given only in a name is not applied to a line headed by its entry.
UniProt Q13485: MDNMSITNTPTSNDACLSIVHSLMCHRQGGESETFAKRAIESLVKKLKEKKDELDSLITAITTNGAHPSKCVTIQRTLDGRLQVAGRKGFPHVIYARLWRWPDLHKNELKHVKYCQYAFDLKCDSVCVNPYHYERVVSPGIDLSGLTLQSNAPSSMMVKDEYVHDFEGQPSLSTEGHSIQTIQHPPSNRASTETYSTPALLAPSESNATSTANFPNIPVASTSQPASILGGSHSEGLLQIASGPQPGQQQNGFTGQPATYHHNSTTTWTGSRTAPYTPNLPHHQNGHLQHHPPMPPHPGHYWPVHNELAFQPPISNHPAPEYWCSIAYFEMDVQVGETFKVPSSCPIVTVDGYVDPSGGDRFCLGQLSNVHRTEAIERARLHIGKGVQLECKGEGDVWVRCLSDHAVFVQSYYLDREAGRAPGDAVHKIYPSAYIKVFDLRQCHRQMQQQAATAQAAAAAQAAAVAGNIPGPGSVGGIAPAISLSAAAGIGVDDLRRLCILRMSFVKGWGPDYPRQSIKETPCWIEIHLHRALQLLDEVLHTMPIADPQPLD
UniProt P84022: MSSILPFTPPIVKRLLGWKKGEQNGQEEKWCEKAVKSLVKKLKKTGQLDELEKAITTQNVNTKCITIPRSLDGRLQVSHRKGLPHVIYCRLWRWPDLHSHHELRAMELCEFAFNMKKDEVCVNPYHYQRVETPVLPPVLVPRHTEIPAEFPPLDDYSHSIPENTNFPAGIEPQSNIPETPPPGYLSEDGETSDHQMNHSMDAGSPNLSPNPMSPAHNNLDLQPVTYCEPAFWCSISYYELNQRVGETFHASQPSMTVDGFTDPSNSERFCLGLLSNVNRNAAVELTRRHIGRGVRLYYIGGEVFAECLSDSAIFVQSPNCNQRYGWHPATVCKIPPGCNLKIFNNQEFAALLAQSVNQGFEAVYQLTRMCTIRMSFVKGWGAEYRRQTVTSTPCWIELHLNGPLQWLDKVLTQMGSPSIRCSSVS
UniProt Q62432: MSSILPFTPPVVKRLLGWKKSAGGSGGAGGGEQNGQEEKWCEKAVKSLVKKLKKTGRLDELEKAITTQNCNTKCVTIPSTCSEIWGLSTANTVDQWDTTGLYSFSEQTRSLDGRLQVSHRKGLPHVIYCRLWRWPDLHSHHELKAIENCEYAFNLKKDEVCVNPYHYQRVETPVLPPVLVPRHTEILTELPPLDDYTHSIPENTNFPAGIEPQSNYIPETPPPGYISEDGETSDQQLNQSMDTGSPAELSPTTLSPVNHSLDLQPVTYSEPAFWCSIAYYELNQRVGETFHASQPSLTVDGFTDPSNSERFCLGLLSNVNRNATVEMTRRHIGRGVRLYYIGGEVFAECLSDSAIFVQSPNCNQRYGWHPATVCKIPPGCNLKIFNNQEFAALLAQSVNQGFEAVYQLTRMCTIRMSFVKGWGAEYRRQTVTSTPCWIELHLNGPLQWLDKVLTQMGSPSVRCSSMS

Legend:
[1] = target: T1, kinase-defective (KR) HA-tagged TβR-I (UniProt P36897); test: affinity cross-linking with 125I-TGF-β1, anti-FLAG immunoprecipitation from COS-7 lysates, autoradiography
T1 sequence (looked up): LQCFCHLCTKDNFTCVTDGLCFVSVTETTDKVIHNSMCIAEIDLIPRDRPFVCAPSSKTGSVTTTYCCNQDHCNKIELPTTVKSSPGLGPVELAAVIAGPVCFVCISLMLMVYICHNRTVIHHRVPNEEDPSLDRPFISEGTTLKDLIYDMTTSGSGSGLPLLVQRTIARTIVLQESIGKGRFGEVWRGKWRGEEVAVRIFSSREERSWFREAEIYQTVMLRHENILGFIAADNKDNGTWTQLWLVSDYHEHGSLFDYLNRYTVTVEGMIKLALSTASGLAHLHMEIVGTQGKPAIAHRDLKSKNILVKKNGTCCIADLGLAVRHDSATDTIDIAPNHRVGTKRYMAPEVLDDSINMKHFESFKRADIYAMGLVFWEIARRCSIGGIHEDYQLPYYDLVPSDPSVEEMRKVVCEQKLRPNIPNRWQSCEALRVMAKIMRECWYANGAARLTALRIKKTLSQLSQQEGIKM

[2] = target: Smad4 (epitope-tagged, heteromerization experiment of Example 4) (Homo sapiens (Human)) (UniProt Q13485); test: co-immunoprecipitation and Western blot from COS-7 cells
[3] = target: Smad3 (epitope-tagged, heteromerization experiment of Example 4) (Homo sapiens (Human)) (UniProt P84022); test: co-immunoprecipitation and Western blot from COS-7 cells with constitutively active TβR-I

binding [1]: binds
Substance: FLAG-tagged Smad2 (from UniProt Q62432 2-467)

binding [2]: binds
Substance: Smad2 (epitope-tagged, heteromerization experiment of Example 4) (from UniProt Q62432 2-467)

binding [3]: binds
Substance: Smad4 (epitope-tagged, heteromerization experiment of Example 4) (from UniProt Q13485 1-552)
